Reference: patent US12419871B2, “Biomolecules involved in Alzheimer's disease” (ELECTROPHORETICS LIMITED, priority 2015, dated 2025)

B1: O14734 (protein, UniProt O14734 1-319, looked up)
chain: MSSPQAPEDGQGCGDRGDPPGDLRSVLVTTVLNLEPLDEDLFRGRHYWVPAKRLFGGQIVGQALVAAAKSVSEDVHVHSLHCYFVRAGDPKLPVLYQVERTRTGSSFSVRSVKAVQHGKPIFICQASFQQAQPSPMQHQFSMPTVPPPEELLDCETLIDQYLRDPNLQKRYPLALNRIAAQEVPIEIKPVNPSPLSQLQRMEPKQMFWVRARGYIGEGDMKMHCCVAAYISDYAFLGTALLPHQWQHKVHFMVSLDHSMWFHAPFRADHWMLYECESPWAGGSRGLVHGRLWRQDGVLAVTCAQEGVIRVKPQVSESKL
modifications: full-length
B2: O14745 (protein, UniProt O14745 1-358, looked up)
chain: MSADAAAGAPLPRLCCLEKGPNGYGFHLHGEKGKLGQYIRLVEPGSPAEKAGLLAGDRLVEVNGENVEKETHQQVVSRIRAALNAVRLLVVDPETDEQLQKLGVQVREELLRAQEAPGQAEPPAAAEVQGAGNENEPREADKSHPEQRELRPRLCTMKKGPSGYGFNLHSDKSKPGQFIRSVDPDSPAEASGLRAQDRIVEVNGVCMEGKQHGDVVSAIRAGGDETKLLVVDRETDEFFKKCRVIPSQEHLNGPLPVPFTNGEIQKENSREALAEAALESPRPALVRSASSDTSEELNSQDSPPKQDSTAPSSTSSSDPILDFNISLAMAKERAHQKRSSKRAPQMDWSKKNELFSNL
modifications: full-length
B3: P56181 (protein, UniProt P56181 1-108, looked up)
chain: MAAPCLLRQGRAGALKTMLQEAQVFRGLASTVSLSAESGKSEKGQPQNSKKQSPPKKPAPVPAEPFDNTTYKNLQHHDYSTYTFLDLNLELSKFRMPQPSSGRESPRH
modifications: full-length
B4: Q9UHQ9 (protein, UniProt Q9UHQ9 1-305, looked up)
chain: MGIQTSPVLLASLGVGLVTLLGLAVGSYLVRRSRRPQVTLLDPNEKYLLRLLDKTTVSHNTKRFRFALPTAHHTLGLPVGKHIYLSTRIDGSLVIRPYTPVTSDEDQGYVDLVIKVYLKGVHPKFPEGGKMSQYLDSLKVGDVVEFRGPSGLLTYTGKGHFNIQPNKKSPPEPRVAKKLGMIAGGTGITPMLQLIRAILKVPEDPTQCFLLFANQTEKDIILREDLEELQARYPNRFKLWFTLDHPPKDWAYSKGFVTADMIREHLPAPGDDVLVLLCGPPPMVQLACHPNLDKLGYSQKMRFTY
modifications: full-length
B5: P12235 (protein, UniProt P12235 1-298, looked up)
chain: MGDHAWSFLKDFLAGGVAAAVSKTAVAPIERVKLLLQVQHASKQISAEKQYKGIIDCVVRIPKEQGFLSFWRGNLANVIRYFPTQALNFAFKDKYKQLFLGGVDRHKQFWRYFAGNLASGGAAGATSLCFVYPLDFARTRLAADVGKGAAQREFHGLGDCIIKIFKSDGLRGLYQGFNVSVQGIIIYRAAYFGVYDTAKGMLPDPKNVHIFVSWMIAQSVTAVAGLVSYPFDTVRRRMMMQSGRKGADIMYTGTVDCWRKIAKDEGAKAFFKGAWSNVLRGMGGAFVLVLYDEIKKYV
modifications: full-length
B6: O00533 (protein, UniProt O00533 1-1208, looked up)
chain: MEPLLLGRGLIVYLMFLLLKFSKAIEIPSSVQQVPTIIKQSKVQVAFPFDEYFQIECEAKGNPEPTFSWTKDGNPFYFTDHRIIPSNNSGTFRIPNEGHISHFQGKYRCFASNKLGIAMSEEIEFIVPSVPKFPKEKIDPLEVEEGDPIVLPCNPPKGLPPLHIYWMNIELEHIEQDERVYMSQKGDLYFANVEEKDSRNDYCCFAAFPRLRTIVQKMPMKLTVNSSNSIKQRKPKLLLPPTESGSESSITILKGEILLLECFAEGLPTPQVDWNKIGGDLPKGRETKENYGKTLKIENVSYQDKGNYRCTASNFLGTATHDFHVIVEEPPRWTKKPQSAVYSTGSNGILLCEAEGEPQPTIKWRVNGSPVDNHPFAGDVVFPREISFTNLQPNHTAVYQCEASNVHGTILANANIDVVDVRPLIQTKDGENYATVVGYSAFLHCEFFASPEAVVSWQKVEEVKPLEGRRYHIYENGTLQINRTTEEDAGSYSCWVENAIGKTAVTANLDIRNATKLRVSPKNPRIPKLHMLELHCESKCDSHLKHSLKLSWSKDGEAFEINGTEDGRIIIDGANLTISNVTLEDQGIYCCSAHTALDSAADITQVTVLDVPDPPENLHLSERQNRSVRLTWEAGADHNSNISEYIVEFEGNKEEPGRWEELTRVQGKKTTVILPLAPFVRYQFRVIAVNEVGRSQPSQPSDHHETPPAAPDRNPQNIRVQASQPKEMIIKWEPLKSMEQNGPGLEYRVTWKPQGAPVEWEEETVTNHTLRVMTPAVYAPYDVKVQAINQLGSGPDPQSVTLYSGEDYPDTAPVIHGVDVINSTLVKVTWSTVPKDRVHGRLKGYQINWWKTKSLLDGRTHPKEVNILRFSGQRNSGMVPSLDAFSEFHLTVLAYNSKGAGPESEPYIFQTPEGVPEQPTFLKVIKVDKDTATLSWGLPKKLNGNLTGYLLQYQIINDTYEIGELNDINITTPSKPSWHLSNLNATTKYKFYLRACTSQGCGKPITEESSTLGEGSKGIGKISGVNLTQKTHPIEVFEPGAEHIVRLMTKNWGDNDSIFQDVIETRGREYAGLYDDISTQGWFIGLMCAIALLTLLLLTVCFVKRNRGGKYSVKEKEDLHPDPEIQSVKDETFGEYSDSDEKPLKGSLRSLNRDMQPTESADSLVEYGEGDHGLFSEDGSFIGAYAGSKEKGSVESNGSSTATFPLRA
modifications: full-length
B7: Q9NPD7 (protein, UniProt Q9NPD7 1-142, looked up)
chain: MGLKLNGRYISLILAVQIAYLVQAVRAAGKCDAVFKGFSDCLLKLGDSMANYPQGLDDKTNIKTVCTYWEDFHSCTVTALTDCQEGAKDMWDKLRKESKNLNIQGSLFELCGSGNGAAGSLLPAFPVLLVSLSAALATWLSF
modifications: full-length
B8: Q9UBB6 (protein, UniProt Q9UBB6 1-729, looked up)
chain: MSCCDLAAAGQLGKASIMASDCEPALNQAEGRNPTLERYLGALREAKNDSEQFAALLLVTKAVKAGDIDAKTRRRIFDAVGFTFPNRLLTTKEAPDGCPDHVLRALGVALLACFCSDPELAAHPQVLNKIPILSTFLTARGDPDDAARRSMIDDTYQCLTAVAGTPRGPRHLIAGGTVSALCQAYLGHGYGFDQALALLVGLLAAAETQCWKEAEPDLLAVLRGLSEDFQKAEDASKFELCQLLPLFLPPTTVPPECYRDLQAGLARILGSKLSSWQRNPALKLAARLAHACGSDWIPAGSSGSKFLALLVNLACVEVRLALEETGTEVKEDVVTACYALMELGIQECTRCEQSLLKEPQKVQLVSVMKEAIGAVIHYLLQVGSEKQKEPFVFASVRILGAWLAEETSSLRKEVCQLLPFLVRYAKTLYEEAEEANDLSQQVANLAISPTTPGPTWPGDALRLLLPGWCHLTVEDGPREILIKEGAPSLLCKYFLQQWELTSPGHDTSVLPDSVEIGLQTCCHIFLNLVVTAPGLIKRDACFTSLMNTLMTSLPALVQQQGRLLLAANVATLGLLMARLLSTSPALQGTPASRGFFAAAILFLSQSHVARATPGSDQAVLALSPEYEGIWADLQELWFLGMQAFTGCVPLLPWLAPAALRSRWPQELLQLLGSVSPNSVKPEMVAAYQGVLVELARANRLCREAMRLQAGEETASHYRMAALEQCLSEP
modifications: full-length
B9: P16519 (protein, UniProt P16519 1-638, looked up)
chain: MKGGCVSQWKAAAGFLFCVMVFASAERPVFTNHFLVELHKGGEDKARQVAAEHGFGVRKLPFAEGLYHFYHNGLAKAKRRRSLHHKQQLERDPRVKMALQQEGFDRKKRGYRDINEIDINMNDPLFTKQWYLINTGQADGTPGLDLNVAEAWELGYTGKGVTIGIMDDGIDYLHPDLASNYNAEASYDFSSNDPYPYPRYTDDWFNSHGTRCAGEVSAAANNNICGVGVAYNSKVAGIRMLDQPFMTDIIEASSISHMPQLIDIYSASWGPTDNGKTVDGPRELTLQAMADGVNKGRGGKGSIYVWASGDGGSYDDCNCDGYASSMWTISINSAINDGRTALYDESCSSTLASTFSNGRKRNPEAGVATTDLYGNCTLRHSGTSAAAPEAAGVFALALEANLGLTWRDMQHLTVLTSKRNQLHDEVHQWRRNGVGLEFNHLFGYGVLDAGAMVKMAKDWKTVPERFHCVGGSVQDPEKIPSTGKLVLTLTTDACEGKENFVRYLEHVQAVITVNATRRGDLNINMTSPMGTKSILLSRRPRDDDSKVGFDKWPFMTTHTWGEDARGTWTLELGFVGSAPQKGVLKEWTLMLHGTQSAPYIDQVVRDYQSKLAMSKKEELEEELDEAVERSLKSILNKN
modifications: full-length
B10: Q8NFZ4 (protein, UniProt Q8NFZ4 1-835, looked up)
chain: MWLLALCLVGLAGAQRGGGGPGGGAPGGPGLGLGSLGEERFPVVNTAYGRVRGVRRELNNEILGPVVQFLGVPYATPPLGARRFQPPEAPASWPGVRNATTLPPACPQNLHGALPAIMLPVWFTDNLEAAATYVQNQSEDCLYLNLYVPTEDGPLTKKRDEATLNPPDTDIRDPGKKPVMLFLHGGSYMEGTGNMFDGSVLAAYGNVIVATLNYRLGVLGFLSTGDQAAKGNYGLLDQIQALRWLSENIAHFGGDPERITIFGSGAGASCVNLLILSHHSEGLFQKAIAQSGTAISSWSVNYQPLKYTRLLAAKVGCDREDSAEAVECLRRKPSRELVDQDVQPARYHIAFGPVVDGDVVPDDPEILMQQGEFLNYDMLIGVNQGEGLKFVEDSAESEDGVSASAFDFTVSNFVDNLYGYPEGKDVLRETIKFMYTDWADRDNGEMRRKTLLALFTDHQWVAPAVATAKLHADYQSPVYFYTFYHHCQAEGRPEWADAAHGDELPYVFGVPMVGATDLFPCNFSKNDVMLSAVVMTYWTNFAKTGDPNQPVPQDTKFIHTKPNRFEEVVWSKFNSKEKQYLHIGLKPRVRDNYRANKVAFWLELVPHLHNLHTELFTTTTRLPPYATRWPPRPPAGAPGTRRPPPPATLPPEPEPEPGPRAYDRFPGDSRDYSTELSVTVAVGASLLFLNILAFAALYYKRDRRQELRCRRLSPPGGSGSGVPGGGPLLPAAGRELPPEEELVSLQLKRGGGVGADPAEALRPACPPDYTLALRRAPDDVPLLAPGALTLLPSGLGPPPPPPPPSLHPFGPFPPPPPTATSHNNTLPHPHSTTRV
modifications: full-length
B11: O95502 (protein, UniProt O95502 1-500, looked up)
chain: MKFLAVLLAAGMLAFLGAVICIIASVPLAASPARALPGGADNASVASGAAASPGPQRSLSALHGAGGSAGPPALPGAPAASAHPLPPGPLFSRFLCTPLAAACPSGAQQGDAAGAAPGEREELLLLQSTAEQLRQTALQQEARIRADQDTIRELTGKLGRCESGLPRGLQGAGPRRDTMADGPWDSPALILELEDAVRALRDRIDRLEQELPARVNLSAAPAPVSAVPTGLHSKMDQLEGQLLAQVLALEKERVALSHSSRRQRQEVEKELDVLQGRVAELEHGSSAYSPPDAFKISIPIRNNYMYARVRKALPELYAFTACMWLRSRSSGTGQGTPFSYSVPGQANEIVLLEAGHEPMELLINDKVAQLPLSLKDNGWHHICIAWTTRDGLWSAYQDGELQGSGENLAAWHPIKPHGILILGQEQDTLGGRFDATQAFVGDIAQFNLWDHALTPAQVLGIANCTAPLLGNVLPWEDKLVEAFGGATKAAFDVCKGRAKA
modifications: full-length

Assay: TMTcalibrator quantification of regulated proteins in AD CSF versus control
Set-up: species or system human
Conditions: CSF of AD patient versus control; non-modified peptides of each protein summed for three control and three AD cases

| Molecule | Log2 AD/Control |
| --- | --- |
| B1 | 0.76 |
| B2 | 1.06 |
| B3 | 0.70 |
| B4 | 0.72 |
| B5 | 0.71 |
| B6 | 0.80 |
| B7 | 0.94 |
| B8 | 0.80 |
| B9 | 1.52 |
| B10 | 0.96 |
| B11 | 1.09 |
